Data: the supplement of paper PMC6078165
± gives the standard deviation of the averaged measurements. Values are relative to the signal before dosing, not to a vehicle control; the signal also falls without drug.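 Labels refer to human fibroblasts, largely primary: uterine (C12385, HUF), lung (H6013), bone (Hs27A), adrenal (HADF), skin (WS1), plus mammary HMF and breast cancer-associated Hs343T. Cancer lines are basal-like or mesenchymal-like triple-negative breast cancer. The paper counts as hits responses shifting over 3x the replicate standard deviation. The tissue of the other fibroblasts is not given here.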

System: MDAMB231
Assay: relative JC-1 red fluorescence (viability) vs pre-drug, coculture with fibroblast (fraction); higher = more viable cancer cells
Procedure: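 JC-1 labelled TNBC cells cocultured 1:1 (1,500 cells each) with CellTrace Violet stained primary or stromal fibroblasts in 384-well plates in FluoroBrite medium, treated with one of 42 anticancer drugs at 0.1, 1, 10 or 100 uM. JC-1 red fluorescence (mitochondrial integrity in cancer cells only) was read by plate reader every 8 h for 72 h. Values are normalised to each well's pre-drug value. The stock of one drug was tenfold lower, so its dose labels may be too high.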

CC(C)C[C@H](NC(=O)[C@H](Cc1ccccc1)NC(=O)c1cnccn1)B(O)O [Bortezomib]
relative JC-1 red fluorescence
Settings	8 h	16 h	24 h	32 h	40 h	48 h	56 h	64 h	72 h
10 µM, coculture fibroblast: C12385	0.762 ± 0.023	0.7 ± 0.013	0.557 ± 0.079	0.443 ± 0.059	0.357 ± 0.079	0.337 ± 0.083	0.313 ± 0.086	0.327 ± 0.093	0.322 ± 0.094
10 µM, coculture fibroblast: H6013	0.8774 ± 0.0011	0.7726 ± 0.0016	0.6627 ± 0.0015	0.57 ± 0.0059	0.51 ± 0.011	0.526 ± 0.019	0.502 ± 0.017	0.501 ± 0.015	0.482 ± 0.013
10 µM, coculture fibroblast: H6019	0.765 ± 0.02	0.687 ± 0.0069	0.613 ± 0.035	0.541 ± 0.035	0.51 ± 0.059	0.518 ± 0.062	0.516 ± 0.069	0.56 ± 0.07	0.557 ± 0.077
10 µM, coculture fibroblast: H6076	0.9 ± 0.061	0.758 ± 0.044	0.6049 ± 0.0013	0.562 ± 0.0062	0.55 ± 0.0072	0.539 ± 0.01	0.538 ± 0.02	0.546 ± 0.021	0.568 ± 0.025
10 µM, coculture fibroblast: H6231	0.929 ± 0.034	0.836 ± 0.073	0.701 ± 0.093	0.615 ± 0.088	0.558 ± 0.082	0.536 ± 0.069	0.5 ± 0.058	0.488 ± 0.051	0.474 ± 0.051
10 µM, coculture fibroblast: HADF	0.8572 ± 0.0037	0.771 ± 0.031	0.651 ± 0.061	0.539 ± 0.083	0.484 ± 0.073	0.467 ± 0.064	0.425 ± 0.059	0.407 ± 0.058	0.373 ± 0.047
10 µM, coculture fibroblast: HCFa	0.8841 ± 0.0075	0.7734 ± 0.005	0.638 ± 0.036	0.534 ± 0.059	0.495 ± 0.068	0.476 ± 0.074	0.445 ± 0.064	0.429 ± 0.055	0.402 ± 0.051
10 µM, coculture fibroblast: HCPF	0.873 ± 0.028	0.776 ± 0.015	0.656 ± 0.011	0.597 ± 0.033	0.55 ± 0.051	0.514 ± 0.053	0.495 ± 0.06	0.48 ± 0.055	0.469 ± 0.054
10 µM, coculture fibroblast: HHSteC	0.8671 ± 0.0056	0.784 ± 0.031	0.65 ± 0.034	0.531 ± 0.0086	0.461 ± 0.015	0.446 ± 0.018	0.397 ± 0.033	0.387 ± 0.037	0.356 ± 0.037
10 µM, coculture fibroblast: HMF	0.86 ± 0.046	0.762 ± 0.051	0.631 ± 0.056	0.574 ± 0.037	0.532 ± 0.027	0.499 ± 0.022	0.488 ± 0.019	0.5 ± 0.017	0.5035 ± 0.0049
10 µM, coculture fibroblast: HPFa	0.9419 ± 0.0036	0.8535 ± 0.0082	0.729 ± 0.015	0.622 ± 0.023	0.591 ± 0.029	0.574 ± 0.029	0.525 ± 0.02	0.51 ± 0.018	0.479 ± 0.022
10 µM, coculture fibroblast: HUF	0.875 ± 0.055	0.773 ± 0.081	0.793 ± 0.094	0.641 ± 0.091	0.588 ± 0.084	0.578 ± 0.081	0.541 ± 0.077	0.56 ± 0.074	0.548 ± 0.069
10 µM, coculture fibroblast: Hs5	0.908 ± 0.021	0.831 ± 0.035	0.73 ± 0.06	0.66 ± 0.059	0.617 ± 0.048	0.564 ± 0.054	0.544 ± 0.056	0.534 ± 0.062	0.527 ± 0.061
10 µM, coculture fibroblast: Hs27A	0.903 ± 0.016	0.801 ± 0.046	0.693 ± 0.06	0.61 ± 0.068	0.545 ± 0.07	0.534 ± 0.069	0.491 ± 0.056	0.472 ± 0.047	0.434 ± 0.045
10 µM, coculture fibroblast: Hs343T	0.868 ± 0.01	0.7329 ± 0.0068	0.618 ± 0.036	0.549 ± 0.054	0.506 ± 0.047	0.479 ± 0.055	0.45 ± 0.052	0.446 ± 0.055	0.44 ± 0.052
10 µM, coculture fibroblast: WS1	0.758 ± 0.035	0.679 ± 0.018	0.619 ± 0.078	0.503 ± 0.06	0.442 ± 0.066	0.426 ± 0.083	0.4 ± 0.09	0.418 ± 0.092	0.41 ± 0.096
100 µM, coculture fibroblast: C12385	0.773 ± 0.022	0.78 ± 0.048	0.604 ± 0.032	0.51 ± 0.037	0.42 ± 0.018	0.389 ± 0.003	0.358 ± 0.013	0.357 ± 0.023	0.338 ± 0.023
100 µM, coculture fibroblast: H6013	0.914 ± 0.021	0.816 ± 0.081	0.723 ± 0.12	0.655 ± 0.15	0.576 ± 0.15	0.582 ± 0.15	0.55 ± 0.14	0.542 ± 0.14	0.515 ± 0.14
100 µM, coculture fibroblast: H6019	0.79 ± 0.02	0.7051 ± 0.0064	0.702 ± 0.04	0.652 ± 0.041	0.625 ± 0.054	0.637 ± 0.067	0.636 ± 0.051	0.678 ± 0.066	0.669 ± 0.058
100 µM, coculture fibroblast: H6076	0.9361 ± 0.0045	0.808 ± 0.022	0.661 ± 0.035	0.611 ± 0.039	0.574 ± 0.048	0.545 ± 0.046	0.539 ± 0.055	0.538 ± 0.046	0.54 ± 0.049
100 µM, coculture fibroblast: H6231	0.93 ± 0.032	0.817 ± 0.032	0.687 ± 0.043	0.635 ± 0.057	0.579 ± 0.07	0.561 ± 0.07	0.539 ± 0.066	0.525 ± 0.064	0.513 ± 0.069
100 µM, coculture fibroblast: HADF	0.907 ± 0.022	0.818 ± 0.046	0.6712 ± 0.006	0.542 ± 0.053	0.485 ± 0.071	0.477 ± 0.079	0.423 ± 0.07	0.413 ± 0.072	0.375 ± 0.077
100 µM, coculture fibroblast: HCFa	0.885 ± 0.03	0.756 ± 0.044	0.626 ± 0.037	0.519 ± 0.051	0.466 ± 0.068	0.444 ± 0.072	0.399 ± 0.075	0.372 ± 0.066	0.338 ± 0.057
100 µM, coculture fibroblast: HCPF	0.901 ± 0.012	0.7795 ± 0.0068	0.606 ± 0.01	0.5597 ± 0.00059	0.5266 ± 0.0041	0.504 ± 0.0079	0.476 ± 0.0048	0.455 ± 0.0022	0.4377 ± 0.0038
100 µM, coculture fibroblast: HHSteC	0.919 ± 0.013	0.805 ± 0.013	0.675 ± 0.045	0.568 ± 0.042	0.502 ± 0.042	0.487 ± 0.055	0.438 ± 0.067	0.422 ± 0.076	0.379 ± 0.079
100 µM, coculture fibroblast: HMF	0.9211 ± 0.0057	0.7972 ± 0.0073	0.684 ± 0.054	0.62 ± 0.083	0.545 ± 0.085	0.5 ± 0.093	0.481 ± 0.094	0.476 ± 0.085	0.464 ± 0.085
100 µM, coculture fibroblast: HPFa	0.9151 ± 0.0083	0.771 ± 0.065	0.752 ± 0.07	0.75 ± 0.21	0.715 ± 0.2	0.715 ± 0.2	0.659 ± 0.19	0.653 ± 0.2	0.62 ± 0.21
100 µM, coculture fibroblast: HUF	0.8527 ± 0.0014	0.73048 ± 3.9e-05	0.651 ± 0.0066	0.527 ± 0.034	0.47 ± 0.031	0.458 ± 0.027	0.417 ± 0.024	0.424 ± 0.029	0.415 ± 0.026
100 µM, coculture fibroblast: Hs5	0.9094 ± 0.0065	0.774 ± 0.0085	0.66 ± 0.022	0.602 ± 0.013	0.55 ± 0.026	0.5 ± 0.025	0.473 ± 0.025	0.46 ± 0.019	0.453 ± 0.012
100 µM, coculture fibroblast: Hs27A	0.89 ± 0.017	0.798 ± 0.026	0.677 ± 0.039	0.606 ± 0.046	0.546 ± 0.041	0.521 ± 0.023	0.488 ± 0.021	0.466 ± 0.014	0.414 ± 0.0073
100 µM, coculture fibroblast: Hs343T	0.907 ± 0.026	0.762 ± 0.0078	0.6372 ± 0.0057	0.573 ± 0.031	0.505 ± 0.044	0.461 ± 0.036	0.427 ± 0.025	0.414 ± 0.032	0.4 ± 0.031
100 µM, coculture fibroblast: WS1	0.785 ± 0.013	0.733 ± 0.03	0.597 ± 0.029	0.497 ± 0.018	0.422 ± 0.016	0.39 ± 0.022	0.36 ± 0.022	0.354 ± 0.027	0.337 ± 0.017
